From article PMC9282857
Positions count from the first letter of the chain named. Names may count otherwise. No constants are given. Whether binding was seen depends on the method and setting. In cells and extracts the contact can be indirect. Some results given as binding are weak or reduced against the parent protein; the word gives no strength. Where a sequence is shown, tags or fusion partners need not be part of it. Blank lines part the entries; values can stand above or below the binder they belong to.

Target: T1, Itr1-GFP (S. cerevisiae) (UniProt P30605)
T1 sequence: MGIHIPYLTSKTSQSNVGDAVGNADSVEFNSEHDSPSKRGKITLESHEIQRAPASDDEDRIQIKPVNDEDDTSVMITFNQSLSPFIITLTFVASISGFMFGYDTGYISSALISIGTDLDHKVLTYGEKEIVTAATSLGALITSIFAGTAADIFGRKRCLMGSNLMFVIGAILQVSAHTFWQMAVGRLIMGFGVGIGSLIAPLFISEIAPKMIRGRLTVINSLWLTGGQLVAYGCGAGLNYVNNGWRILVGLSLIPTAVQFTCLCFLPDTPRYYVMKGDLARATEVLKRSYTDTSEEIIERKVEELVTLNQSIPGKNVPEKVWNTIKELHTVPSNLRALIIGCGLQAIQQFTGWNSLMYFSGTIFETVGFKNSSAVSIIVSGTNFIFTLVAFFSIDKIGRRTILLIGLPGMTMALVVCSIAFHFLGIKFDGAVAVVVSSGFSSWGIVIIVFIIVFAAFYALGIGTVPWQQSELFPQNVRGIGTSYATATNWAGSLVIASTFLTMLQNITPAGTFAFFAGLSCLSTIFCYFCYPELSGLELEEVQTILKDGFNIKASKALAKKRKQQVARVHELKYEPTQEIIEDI
Test: co-IP; yeast lysate in IP buffer with 1% Triton X-100; GFP-tagged cargo bound to GFP-nanotrap resin 2 hr at 4°C; ART protein detected by blot

- binding: binds
B1: Art5^WT (protein, UniProt P53244 1-586)
chain: MFSLSSLSSSGGHSEQKERERISYFDIRINSPYKDIILIQGSPLELSSIPLSGNLVISVKNEIVVKKISLRLVGRFKLEFLQVGRYKKNSSSLASLVKEKRKIFECYWDNLLVSSKGDVLVGGENAENQHNSSSGRSTSNQDMDTSGNAIFLSKRSLSSPVFNKIIRRKTHSSHRKILELPENGVTGTPFEGLRENARSRSSSSNTLNNNSHSYSNRDGSGSSYLFLMKRGNYELPFNTMLPPEVCETIEGLQSGSILYSFEAIIDGRQLWDTDLSVHTSPHGPIGSTSTSGNGMRTKNKIIIKKFKYLRILRTLSMDNLAMQEEISVGNTWRDKLQYETSIPSRAVPIGSTTPVKIKIFPFEKNIRLDRIEMALIQYYAMKDSSAQIYDDEIAVMKITHLADFGPLTDKLDVDCPFTIPDNLKQITQDCCLQDNLIRVMHKLQVRILLQRQVDGEYKNLEIKAQLPMLLFISPHLPMKGRLVLFDKHDGKIHFRPGELVPLFLTTYPAQGLTPGVELNSTTTAHLALPQPPPNYHESTNDHLMPALQPLGADSVVLTVPSYEQAQAQASASSYVTGSVPAYCDDD
modifications: partly K63-linked di-ubiquitinated at K364 in cells

- binding: binds
B2: art5^K364R (protein, UniProt P53244 1-586)
chain: B1 chain with K364R
